Source: patent US10119097B2, “Organic compounds” (GIVAUDAN SA, priority 2014, dated 2018)

Experiment: odour description

With CCOC(=O)C(=CCCc1ccc(CC(C)C)cc1C)C(C)=O [Example 1, Ethyl 2-acetyl-5-(4-isobutyl-2-methylphenyl)pent-2-enoate] the Odour description was “floral green fatty muguet cyclamen, fatty buttery, green aldehydic, privet”.
With COc1ccc(C=CCCc2ccc(CC(C)C)cc2C)cc1 [Example 2, 4-Isobutyl-1-(4-(4-methoxyphenyl)but-3-en-1-yl)-2-methylbenzene] the Odour description was “floral muguet, green fatty cyclamen, floral fruity mimosa”.
